Measured values published in the supplement of paper PMC12823440, “Inhibitors supercharge kinase turnover through native proteolytic circuits” (Nature, 2025).
Counter-ions that a name gives are not always drawn. The list shows a part of the results. Hit calls seldom repeat between salt and free forms of one compound.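 Kinases, fused to nanoluciferase, were expressed in K562 cells; luminescence was measured every 4 h from 2 to 18 h as percent of control (DMSO = 100%, positive control = 0%). A time point is decreased if signal falls significantly (2 sigma). Hits were called by the authors by a rule that is not shown; the count of time points alone does not decide it.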

Amino acid sequences for entries named in this document (tags omitted). A change or cut given only in a name is not applied to a line headed by its entry.
UniProt P29317, whole entry: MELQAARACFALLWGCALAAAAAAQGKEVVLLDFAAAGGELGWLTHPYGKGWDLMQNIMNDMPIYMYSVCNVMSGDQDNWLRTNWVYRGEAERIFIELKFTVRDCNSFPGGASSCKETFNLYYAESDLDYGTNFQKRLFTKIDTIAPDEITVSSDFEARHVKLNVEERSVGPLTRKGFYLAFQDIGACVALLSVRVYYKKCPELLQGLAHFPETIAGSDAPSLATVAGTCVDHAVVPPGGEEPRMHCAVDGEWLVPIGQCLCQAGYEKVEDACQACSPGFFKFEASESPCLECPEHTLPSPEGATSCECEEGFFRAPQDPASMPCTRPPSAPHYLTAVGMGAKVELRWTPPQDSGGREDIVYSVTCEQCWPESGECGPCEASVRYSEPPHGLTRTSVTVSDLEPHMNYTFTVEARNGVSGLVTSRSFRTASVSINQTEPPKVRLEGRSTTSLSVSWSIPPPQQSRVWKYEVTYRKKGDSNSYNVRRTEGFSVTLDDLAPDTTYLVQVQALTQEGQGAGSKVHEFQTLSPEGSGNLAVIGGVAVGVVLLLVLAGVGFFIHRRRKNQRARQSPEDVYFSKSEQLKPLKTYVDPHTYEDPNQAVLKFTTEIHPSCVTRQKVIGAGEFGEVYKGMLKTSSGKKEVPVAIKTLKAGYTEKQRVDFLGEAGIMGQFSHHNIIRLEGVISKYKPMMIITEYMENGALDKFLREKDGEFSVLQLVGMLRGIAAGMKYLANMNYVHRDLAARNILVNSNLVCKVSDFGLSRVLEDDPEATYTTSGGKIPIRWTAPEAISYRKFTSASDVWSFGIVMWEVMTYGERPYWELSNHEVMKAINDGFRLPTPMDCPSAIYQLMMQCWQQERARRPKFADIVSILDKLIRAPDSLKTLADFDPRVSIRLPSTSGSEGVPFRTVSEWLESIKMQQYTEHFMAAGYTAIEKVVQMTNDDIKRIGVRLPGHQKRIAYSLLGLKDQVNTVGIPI
UniProt P11362, whole entry, looked up: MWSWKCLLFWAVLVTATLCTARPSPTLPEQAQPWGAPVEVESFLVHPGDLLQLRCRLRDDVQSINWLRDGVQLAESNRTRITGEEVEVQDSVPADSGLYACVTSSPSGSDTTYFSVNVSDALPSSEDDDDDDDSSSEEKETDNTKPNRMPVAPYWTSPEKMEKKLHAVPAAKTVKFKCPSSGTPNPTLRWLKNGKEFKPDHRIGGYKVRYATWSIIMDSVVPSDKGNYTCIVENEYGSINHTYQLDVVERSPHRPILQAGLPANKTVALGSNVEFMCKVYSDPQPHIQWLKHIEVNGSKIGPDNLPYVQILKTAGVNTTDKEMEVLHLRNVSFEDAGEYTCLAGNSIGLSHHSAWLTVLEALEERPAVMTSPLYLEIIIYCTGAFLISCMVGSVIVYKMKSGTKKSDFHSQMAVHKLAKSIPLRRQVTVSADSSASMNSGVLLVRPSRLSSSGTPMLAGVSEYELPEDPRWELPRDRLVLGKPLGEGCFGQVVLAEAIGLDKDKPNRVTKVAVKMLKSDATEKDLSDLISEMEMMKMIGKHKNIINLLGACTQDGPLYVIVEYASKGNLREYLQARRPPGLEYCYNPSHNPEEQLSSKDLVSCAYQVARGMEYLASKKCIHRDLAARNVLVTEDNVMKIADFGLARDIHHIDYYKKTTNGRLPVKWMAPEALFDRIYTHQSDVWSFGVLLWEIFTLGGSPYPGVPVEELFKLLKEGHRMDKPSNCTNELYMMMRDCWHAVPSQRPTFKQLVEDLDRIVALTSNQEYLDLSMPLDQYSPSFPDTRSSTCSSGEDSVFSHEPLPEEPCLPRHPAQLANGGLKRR
UniProt P21802, whole entry, looked up: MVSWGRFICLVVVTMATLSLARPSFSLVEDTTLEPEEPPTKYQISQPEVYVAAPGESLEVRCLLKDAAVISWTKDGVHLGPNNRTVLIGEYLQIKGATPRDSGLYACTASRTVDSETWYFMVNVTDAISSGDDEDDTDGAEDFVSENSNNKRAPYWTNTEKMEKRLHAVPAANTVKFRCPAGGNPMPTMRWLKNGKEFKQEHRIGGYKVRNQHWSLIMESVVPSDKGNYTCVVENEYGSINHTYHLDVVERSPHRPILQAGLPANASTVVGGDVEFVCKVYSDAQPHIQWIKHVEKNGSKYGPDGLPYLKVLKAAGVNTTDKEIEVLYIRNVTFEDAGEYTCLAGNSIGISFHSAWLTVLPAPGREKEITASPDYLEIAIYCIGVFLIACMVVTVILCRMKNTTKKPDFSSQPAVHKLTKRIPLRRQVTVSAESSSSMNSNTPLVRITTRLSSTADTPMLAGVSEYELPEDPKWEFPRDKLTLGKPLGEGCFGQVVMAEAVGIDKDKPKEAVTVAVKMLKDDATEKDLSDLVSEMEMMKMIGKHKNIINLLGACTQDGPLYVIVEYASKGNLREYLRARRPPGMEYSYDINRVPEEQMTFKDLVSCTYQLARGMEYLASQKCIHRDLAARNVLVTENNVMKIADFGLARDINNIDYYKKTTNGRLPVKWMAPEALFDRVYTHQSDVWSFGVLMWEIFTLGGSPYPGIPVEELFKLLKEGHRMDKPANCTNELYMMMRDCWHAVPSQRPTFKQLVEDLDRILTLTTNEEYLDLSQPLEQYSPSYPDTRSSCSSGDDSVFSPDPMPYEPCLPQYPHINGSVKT
UniProt P22607, whole entry, looked up: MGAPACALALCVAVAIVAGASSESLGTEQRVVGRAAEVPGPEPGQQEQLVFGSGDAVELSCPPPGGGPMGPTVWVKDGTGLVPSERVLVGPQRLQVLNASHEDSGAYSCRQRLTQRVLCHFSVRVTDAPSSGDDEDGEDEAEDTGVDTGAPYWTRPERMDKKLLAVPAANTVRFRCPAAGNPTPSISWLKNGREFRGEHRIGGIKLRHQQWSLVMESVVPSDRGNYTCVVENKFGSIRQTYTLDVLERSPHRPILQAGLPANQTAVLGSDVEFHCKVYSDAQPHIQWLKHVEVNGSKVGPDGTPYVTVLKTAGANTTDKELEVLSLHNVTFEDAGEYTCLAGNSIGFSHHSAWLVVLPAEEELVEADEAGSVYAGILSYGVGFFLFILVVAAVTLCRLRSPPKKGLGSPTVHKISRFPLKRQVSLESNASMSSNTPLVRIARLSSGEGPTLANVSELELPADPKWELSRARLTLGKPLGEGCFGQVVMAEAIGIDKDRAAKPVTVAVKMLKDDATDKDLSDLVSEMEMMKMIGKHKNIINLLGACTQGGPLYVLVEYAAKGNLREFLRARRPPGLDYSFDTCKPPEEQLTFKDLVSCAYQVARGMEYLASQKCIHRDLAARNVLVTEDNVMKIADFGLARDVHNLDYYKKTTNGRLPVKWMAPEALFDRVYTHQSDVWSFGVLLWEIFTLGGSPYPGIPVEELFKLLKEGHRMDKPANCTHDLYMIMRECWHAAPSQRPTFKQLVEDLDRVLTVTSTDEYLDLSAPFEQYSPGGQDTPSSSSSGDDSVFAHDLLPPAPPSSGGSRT
UniProt P14616: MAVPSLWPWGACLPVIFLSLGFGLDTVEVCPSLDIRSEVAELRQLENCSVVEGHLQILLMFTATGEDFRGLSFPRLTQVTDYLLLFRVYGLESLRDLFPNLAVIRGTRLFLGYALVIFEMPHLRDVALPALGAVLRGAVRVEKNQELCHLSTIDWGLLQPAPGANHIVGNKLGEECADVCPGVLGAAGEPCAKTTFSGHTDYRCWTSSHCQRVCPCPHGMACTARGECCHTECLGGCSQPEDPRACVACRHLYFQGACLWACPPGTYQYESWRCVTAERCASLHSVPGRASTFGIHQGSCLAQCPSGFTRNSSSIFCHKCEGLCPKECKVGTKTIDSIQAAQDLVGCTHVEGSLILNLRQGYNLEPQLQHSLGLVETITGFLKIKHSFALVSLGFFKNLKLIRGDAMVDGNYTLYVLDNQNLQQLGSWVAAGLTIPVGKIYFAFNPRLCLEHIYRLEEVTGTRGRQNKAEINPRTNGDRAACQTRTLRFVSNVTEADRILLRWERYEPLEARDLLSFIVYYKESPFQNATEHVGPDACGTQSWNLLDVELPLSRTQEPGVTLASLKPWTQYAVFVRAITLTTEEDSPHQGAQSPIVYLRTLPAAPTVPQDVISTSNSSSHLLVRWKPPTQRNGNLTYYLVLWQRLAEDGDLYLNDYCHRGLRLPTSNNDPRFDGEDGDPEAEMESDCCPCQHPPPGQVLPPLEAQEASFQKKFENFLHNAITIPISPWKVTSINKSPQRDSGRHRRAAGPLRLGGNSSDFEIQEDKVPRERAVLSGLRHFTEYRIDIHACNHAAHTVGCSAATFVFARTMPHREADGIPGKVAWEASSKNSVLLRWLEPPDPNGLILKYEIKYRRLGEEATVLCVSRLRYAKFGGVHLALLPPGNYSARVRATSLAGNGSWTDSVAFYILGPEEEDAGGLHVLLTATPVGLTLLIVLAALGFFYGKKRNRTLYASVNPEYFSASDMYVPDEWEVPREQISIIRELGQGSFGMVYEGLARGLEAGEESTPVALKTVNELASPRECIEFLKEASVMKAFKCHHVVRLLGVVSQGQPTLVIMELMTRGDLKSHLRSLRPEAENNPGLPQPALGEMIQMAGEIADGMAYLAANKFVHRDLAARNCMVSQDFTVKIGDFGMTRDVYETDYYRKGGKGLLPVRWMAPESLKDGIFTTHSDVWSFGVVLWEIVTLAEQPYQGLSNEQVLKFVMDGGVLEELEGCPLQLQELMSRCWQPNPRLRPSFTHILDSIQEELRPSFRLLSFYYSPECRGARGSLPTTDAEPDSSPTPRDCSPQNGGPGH
UniProt P23458: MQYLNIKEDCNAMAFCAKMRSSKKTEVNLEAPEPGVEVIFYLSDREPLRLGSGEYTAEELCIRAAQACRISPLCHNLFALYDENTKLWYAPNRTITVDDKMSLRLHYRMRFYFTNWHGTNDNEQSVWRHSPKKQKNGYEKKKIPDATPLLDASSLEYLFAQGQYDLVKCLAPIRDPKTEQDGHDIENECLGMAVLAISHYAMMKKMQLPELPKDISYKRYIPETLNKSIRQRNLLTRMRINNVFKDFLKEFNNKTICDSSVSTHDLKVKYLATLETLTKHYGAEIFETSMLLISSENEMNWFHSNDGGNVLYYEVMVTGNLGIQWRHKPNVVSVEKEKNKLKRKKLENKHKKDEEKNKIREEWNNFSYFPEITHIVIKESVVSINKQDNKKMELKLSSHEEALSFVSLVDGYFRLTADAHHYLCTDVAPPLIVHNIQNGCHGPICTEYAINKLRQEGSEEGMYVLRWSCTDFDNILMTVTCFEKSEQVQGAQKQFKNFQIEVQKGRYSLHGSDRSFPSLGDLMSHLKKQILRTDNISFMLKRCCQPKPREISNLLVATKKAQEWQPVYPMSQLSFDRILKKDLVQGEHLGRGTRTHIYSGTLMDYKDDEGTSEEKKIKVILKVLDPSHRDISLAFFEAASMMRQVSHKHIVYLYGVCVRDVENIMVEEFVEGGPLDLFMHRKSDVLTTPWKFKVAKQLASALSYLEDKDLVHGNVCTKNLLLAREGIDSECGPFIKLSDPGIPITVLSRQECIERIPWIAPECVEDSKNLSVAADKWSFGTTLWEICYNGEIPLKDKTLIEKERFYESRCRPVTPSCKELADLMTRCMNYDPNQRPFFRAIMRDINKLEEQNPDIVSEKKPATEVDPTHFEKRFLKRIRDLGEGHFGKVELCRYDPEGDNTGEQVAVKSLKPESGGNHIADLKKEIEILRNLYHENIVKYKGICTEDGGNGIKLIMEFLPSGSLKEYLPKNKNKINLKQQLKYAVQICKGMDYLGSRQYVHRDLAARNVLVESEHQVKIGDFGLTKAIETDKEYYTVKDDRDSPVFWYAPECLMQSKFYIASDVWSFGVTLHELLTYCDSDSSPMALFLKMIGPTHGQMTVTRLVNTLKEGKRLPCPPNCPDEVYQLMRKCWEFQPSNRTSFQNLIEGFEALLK
UniProt P53667: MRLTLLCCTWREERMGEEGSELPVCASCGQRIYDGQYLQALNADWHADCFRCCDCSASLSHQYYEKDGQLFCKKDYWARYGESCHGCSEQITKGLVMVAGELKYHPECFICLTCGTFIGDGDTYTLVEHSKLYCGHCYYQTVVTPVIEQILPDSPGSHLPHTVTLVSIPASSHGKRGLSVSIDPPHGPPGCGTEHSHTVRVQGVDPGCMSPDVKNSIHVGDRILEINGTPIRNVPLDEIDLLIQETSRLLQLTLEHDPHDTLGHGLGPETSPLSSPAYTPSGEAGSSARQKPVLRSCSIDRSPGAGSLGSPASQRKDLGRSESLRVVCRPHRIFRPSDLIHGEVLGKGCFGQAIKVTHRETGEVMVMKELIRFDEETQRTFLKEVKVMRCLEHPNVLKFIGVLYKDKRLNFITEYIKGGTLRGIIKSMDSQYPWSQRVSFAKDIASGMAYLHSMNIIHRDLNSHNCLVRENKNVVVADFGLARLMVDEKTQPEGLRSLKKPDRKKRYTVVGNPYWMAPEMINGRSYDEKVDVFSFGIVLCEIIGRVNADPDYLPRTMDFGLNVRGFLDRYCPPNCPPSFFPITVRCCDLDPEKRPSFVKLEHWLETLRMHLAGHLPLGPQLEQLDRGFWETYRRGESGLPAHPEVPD

Key:
Test in all cases: number of time points (of 5) at which kinase-Nluc abundance scored as decreased, DMSO-normalised (count); higher = more persistent destabilization
Conditions in all cases: K562; 2-18 h
EGFR_L861Q = EGFR_L861Q (UniProt P00533)
EGFR_T790M = EGFR_T790M (UniProt P00533)
EPHA2 = EPHA2 (UniProt P29317)
ERBB3 = ERBB3 (UniProt P21860)
[1] = target: ERBB4_R711C (clone: ERBB4_mut) (UniProt Q15303)
ERN1 = ERN1 (UniProt O75460)
FGFR1 = FGFR1 (UniProt P11362)
FGFR2 = FGFR2 (UniProt P21802)
FGFR3 = FGFR3 (UniProt P22607)
FGR = FGR (UniProt P09769)
FLT3 = FLT3 (UniProt P36888)
FYN = FYN (UniProt P06241)
GSK3A = GSK3A (UniProt P49840)
HER2 = HER2 (UniProt P04626)
INSRR = INSRR (UniProt P14616)
IRAK3 = IRAK3 (UniProt Q9Y616)
JAK1 = JAK1 (UniProt P23458)
LCK = LCK (UniProt P06239)
LIMK1 = LIMK1 (UniProt P53667)
LIMK2 = LIMK2 (UniProt P53671)

Measured: number of time points

CC(C)CN(CC(=O)N1CCN(CC(OCc2ccc3ccccc3c2)c2ccc(Cl)cc2Cl)CC1)CC(C)C (stereo not given) [LYN-1604 (dihydrochloride)] (2.5 µM)
0: all assays above

CN(CC(=O)N(Cc1ccc(C2CCCCC2)cc1)c1ccc(C(=O)O)cc1)S(=O)(=O)c1c(F)c(F)c(F)c(F)c1F (2.5 µM)
0: all assays above

O=c1cc(O)cc(/C=C/c2ccc(O)c(O)c2)o1 [Hispidin] (10 µM)
0: all assays above

Nc1ncc(-c2cccc(N3CCNCC3)c2)cc1C(=O)Nc1ccncc1 [PKC-iota inhibitor 1] (10 µM)
0: all assays above

N#Cc1ccc2ncnc(NC3CCC(N4CCOCC4)CC3)c2c1 (stereo not given) (10 µM)
0: all assays above

COC1(C(=O)N2Cc3nc(Cl)nc(N[C@H](C)c4cc(N)cc(C(F)(F)F)c4)c3C2)CCOCC1 (10 µM)
0: all assays above
